Paper PMC11589570, “Critical assessment of LC3/GABARAP ligands used for degrader development and ligandability of LC3/GABARAP binding pockets” (Nature Communications, 2024)
Values joined by “and” are separate entries in the source; they are usually repeats but may differ in a detail not shown here. Equal values may be shown once. This continues a long series; more values of the same kind are listed elsewhere.

Test system: U2OS cells
Assay: Cell growth assay (IncuCyte confluence over 72 h)
Format: cell-based
Design: key: % of well area covered by cells (confluence)
Settings: listed as KT1
Summary of the method: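 U2OS cells were grown in DMEM with 10% FBS for 24 h before treatment. Confluence was then tracked by IncuCyte phase imaging over 72 h and expressed as % of well area covered by cells. Each point is the average of three wells.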

In the case of `Cc1ccc(C)c(S(=O)(=O)Nc2cc(SCC(=O)O)c(O)c3ccccc23)c1` [compound 8], the U2OS cell growth (1 uM, time 72 h) is reported as 91.9216 and 92.2442 and 93.6054, the U2OS cell growth (3 uM, time 12 h) is reported as 40.267 and 32.3836 and 41.3396 and the U2OS cell growth (3 uM, time 14 h) is reported as 34.853 and 34.0718 and 37.7724. For the same molecule, the U2OS cell growth (3 uM, time 16 h) was 31.8641 and 28.4036 and 35.1848, the U2OS cell growth (3 uM, time 18 h) was 37.5506 and 37.8606 and 38.5873 and the U2OS cell growth (3 uM, time 20 h) was 35.6491 and 35.0575 and 40.0985. The U2OS cell growth (3 uM, time 22 h) was 37.963 and 32.2641 and 40.2201, the U2OS cell growth (3 uM, time 24 h) was 45.7504 and 49.0443 and 56.404 and the U2OS cell growth (3 uM, time 26 h) was 47.3243 and 43.5312 and 51.7633. The U2OS cell growth (3 uM, time 28 h) was 43.5279 and 44.4572 and 46.9739, the U2OS cell growth (3 uM, time 30 h) was 46.5448 and 42.2809 and 49.7037 and the U2OS cell growth (3 uM, time 32 h) was 41.1954 and 40.0455 and 61.2249. The U2OS cell growth (3 uM, time 34 h) was 57.7539 and 61.6201 and 62.1621, the U2OS cell growth (3 uM, time 36 h) was 50.8759 and 41.5972 and 59.5336 and the U2OS cell growth (3 uM, time 38 h) was 49.2293 and 46.4623 and 60.8979. The U2OS cell growth (3 uM, time 40 h) was 52.5528 and 49.386 and 53.6056, the U2OS cell growth (3 uM, time 42 h) was 66.9634 and 77.0253 and 74.5196 and the U2OS cell growth (3 uM, time 44 h) was 57.6905 and 52.4813 and 68.7199. The U2OS cell growth (3 uM, time 46 h) was 65.3637 and 53.2489 and 67.958, the U2OS cell growth (3 uM, time 48 h) was 60.5354 and 56.8002 and 72.6777 and the U2OS cell growth (3 uM, time 50 h) was 73.2165 and 64.8625 and 79.1572. The U2OS cell growth (3 uM, time 52 h) was 73.4279 and 72.5178 and 87.2757, the U2OS cell growth (3 uM, time 54 h) was 83.6876 and 76.472 and 87.5858 and the U2OS cell growth (3 uM, time 56 h) was 89.0887 and 87.4003 and 95.878. The U2OS cell growth (3 uM, time 58 h) was 85.0275 and 83.3443 and 95.3055, the U2OS cell growth (3 uM, time 60 h) was 90.1625 and 92.9328 and 94.7173 and the U2OS cell growth (3 uM, time 62 h) was 90.2637 and 97.3638 and 98.1064. For the same molecule, the U2OS cell growth (3 uM, time 64 h) was 94.0986 and 93.1569 and 98.4601, the U2OS cell growth (3 uM, time 66 h) was 83.3318 and 83.9594 and 91.7465 and the U2OS cell growth (3 uM, time 68 h) was 94.8286 and 93.8527 and 98.7589. For the same molecule, the U2OS cell growth (3 uM, time 70 h) was 90.3246 and 93.1255 and 91.9588, the U2OS cell growth (3 uM, time 72 h) was 97.2578 and 99.5454 and 98.0911 and the U2OS cell growth (5 uM, time 12 h) was 49.625 and 41.7527 and 41.0637. For the same molecule, the U2OS cell growth (5 uM, time 14 h) was 42.4571 and 42.57 and 41.97, the U2OS cell growth (5 uM, time 16 h) was 40.6444 and 46.2923 and 32.3053 and the U2OS cell growth (5 uM, time 18 h) was 54.2032 and 38.3371 and 47.1798. For the same molecule, the U2OS cell growth (5 uM, time 20 h) was 41.4178 and 46.6665 and 35.5461, the U2OS cell growth (5 uM, time 22 h) was 44.2737 and 46.5681 and 34.0203 and the U2OS cell growth (5 uM, time 24 h) was 53.7705 and 51.6182 and 40.8114. For the same molecule, the U2OS cell growth (5 uM, time 26 h) was 47.6218 and 47.8592 and 37.868, the U2OS cell growth (5 uM, time 28 h) was 50.627 and 52.9572 and 40.8164 and the U2OS cell growth (5 uM, time 30 h) was 54.0507 and 47.045 and 40.6333. For the same molecule, the U2OS cell growth (5 uM, time 32 h) was 50.5745 and 62.5204 and 45.0707, the U2OS cell growth (5 uM, time 34 h) was 61.2376 and 60.6974 and 55.7697 and the U2OS cell growth (5 uM, time 36 h) was 57.0936 and 55.6137 and 49.6811. The U2OS cell growth (5 uM, time 38 h) was 63.5475 and 62.6945 and 58.8156, the U2OS cell growth (5 uM, time 40 h) was 59.1563 and 74.5387 and 47.3816 and the U2OS cell growth (5 uM, time 42 h) was 69.6038 and 69.5872 and 59.3097. For the same molecule, the U2OS cell growth (5 uM, time 44 h) was 65.6561 and 72.3046 and 56.9204, the U2OS cell growth (5 uM, time 46 h) was 67.5278 and 65.2168 and 57.2927 and the U2OS cell growth (5 uM, time 48 h) was 67.6641 and 74.4823 and 69.2803. For the same molecule, the U2OS cell growth (5 uM, time 50 h) was 75.9912 and 76.6871 and 60.826, the U2OS cell growth (5 uM, time 52 h) was 79.9202 and 72.5337 and 66.0805 and the U2OS cell growth (5 uM, time 54 h) was 80.4849 and 77.9904 and 70.9848. For the same molecule, the U2OS cell growth (5 uM, time 56 h) was 89.2278 and 91.1795 and 82.1304, the U2OS cell growth (5 uM, time 58 h) was 89.1429 and 89.0084 and 78.3629 and the U2OS cell growth (5 uM, time 60 h) was 92.9919 and 92.0892 and 83.8822. For the same molecule, the U2OS cell growth (5 uM, time 62 h) was 94.5617 and 97.487 and 88.7359, the U2OS cell growth (5 uM, time 64 h) was 93.791 and 91.2897 and 86.756 and the U2OS cell growth (5 uM, time 66 h) was 91.1466 and 89.2407 and 83.3396. The U2OS cell growth (5 uM, time 68 h) was 92.8599 and 90.4424 and 86.3984, the U2OS cell growth (5 uM, time 70 h) was 91.6599 and 92.2552 and 79.6157 and the U2OS cell growth (5 uM, time 72 h) was 97.2472 and 98.8518 and 91.2384. The U2OS cell growth (10 uM, time 12 h) was 37.189 and 40.4648 and 52.7027, the U2OS cell growth (10 uM, time 14 h) was 34.3839 and 35.6896 and 48.9861 and the U2OS cell growth (10 uM, time 16 h) was 30.2325 and 30.2461 and 41.4865. For the same molecule, the U2OS cell growth (10 uM, time 18 h) was 33.1337 and 32.9389 and 52.3703, the U2OS cell growth (10 uM, time 20 h) was 30.7018 and 30.0617 and 37.8167 and the U2OS cell growth (10 uM, time 22 h) was 30.839 and 28.2137 and 49.5138. For the same molecule, the U2OS cell growth (10 uM, time 24 h) was 30.6121 and 29.1376 and 40.5474, the U2OS cell growth (10 uM, time 26 h) was 35.7424 and 30.4722 and 42.0804 and the U2OS cell growth (10 uM, time 28 h) was 33.4782 and 30.921 and 43.6039. The U2OS cell growth (10 uM, time 30 h) was 32.5645 and 30.3286 and 34.5035, the U2OS cell growth (10 uM, time 32 h) was 30.2055 and 31.8237 and 33.5677 and the U2OS cell growth (10 uM, time 34 h) was 37.5837 and 43.6484 and 51.3932. For the same molecule, the U2OS cell growth (10 uM, time 36 h) was 29.8306 and 34.6824 and 40.9149, the U2OS cell growth (10 uM, time 38 h) was 32.1525 and 33.2716 and 41.3603 and the U2OS cell growth (10 uM, time 40 h) was 30.1408 and 31.5292 and 33.2407. For the same molecule, the U2OS cell growth (10 uM, time 42 h) was 32.3289 and 35.2672 and 47.5823, the U2OS cell growth (10 uM, time 44 h) was 28.9743 and 31.2931 and 43.4691 and the U2OS cell growth (10 uM, time 46 h) was 29.0841 and 30.5391 and 36.6007. The U2OS cell growth (10 uM, time 48 h) was 24.5423 and 29.6196 and 39.5328, the U2OS cell growth (10 uM, time 50 h) was 28.0997 and 29.0734 and 41.0634 and the U2OS cell growth (10 uM, time 52 h) was 28.7511 and 30.391 and 37.1951. The U2OS cell growth (10 uM, time 54 h) was 27.2658 and 29.7979 and 37.5684, the U2OS cell growth (10 uM, time 56 h) was 36.6921 and 35.9497 and 60.0919 and the U2OS cell growth (10 uM, time 58 h) was 32.8096 and 31.3596 and 43.7845. For the same molecule, the U2OS cell growth (10 uM, time 60 h) was 33.0375 and 33.3179 and 45.0177, the U2OS cell growth (10 uM, time 62 h) was 29.8759 and 33.854 and 41.4437 and the U2OS cell growth (10 uM, time 64 h) was 32.0035 and 31.8796 and 42.046. The U2OS cell growth (10 uM, time 66 h) was 26.7489 and 31.2423 and 38.6894, the U2OS cell growth (10 uM, time 68 h) was 27.2964 and 32.6835 and 34.0769 and the U2OS cell growth (10 uM, time 70 h) was 28.8298 and 27.5404 and 33.5399. For the same molecule, the U2OS cell growth (10 uM, time 72 h) was 32.2094 and 34.017 and 40.5956.
